No constants are given. Whether binding was seen depends on the method and setting. Binding seen in cells or lysates may run through a third protein. Some results given as binding are weak or reduced against the parent protein; the word gives no strength.
Biological target: T1, Kynureninase (KYNU) (human (endogenous in Ishikawa)) (UniProt Q16719)
T1 sequence: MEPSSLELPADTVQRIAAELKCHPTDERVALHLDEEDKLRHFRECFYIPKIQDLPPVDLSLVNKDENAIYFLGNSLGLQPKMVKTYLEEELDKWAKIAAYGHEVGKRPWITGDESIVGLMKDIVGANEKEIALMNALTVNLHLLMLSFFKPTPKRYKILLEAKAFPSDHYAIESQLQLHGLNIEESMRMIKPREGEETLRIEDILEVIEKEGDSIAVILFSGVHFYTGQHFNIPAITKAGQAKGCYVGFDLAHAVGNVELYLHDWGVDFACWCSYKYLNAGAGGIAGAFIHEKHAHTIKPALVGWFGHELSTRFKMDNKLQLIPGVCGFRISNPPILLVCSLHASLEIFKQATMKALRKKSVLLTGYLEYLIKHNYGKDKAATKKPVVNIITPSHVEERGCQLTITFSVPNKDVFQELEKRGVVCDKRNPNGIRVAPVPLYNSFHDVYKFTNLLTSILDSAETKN
Assay: co-IP; Pierce Co-IP Kit; 50 ug of antibodies against KYNU and SOD2 (normal IgG as negative control) covalently coupled to amine-reactive agarose resin; lysates of ECCs and ECSCs in IP lysis buffer incubated with the resin overnight at 4 °C; western blot

- binding: binds
B1: superoxide dismutase 2 (SOD2) (enzyme, UniProt P04179 25-222)
chain: KHSLPDLPYDYGALEPHINAQIMQLHHSKHHAAYVNNLNVTEEKYQEALAKGDVTAQIALQPALKFNGGGHINHSIFWTNLSPNGGGEPKGELLEAIKRDFGSFDKFKEKLTAASVGVQGSGWGWLGFNKERGHLQIAACPNQDPLQGTTGLIPLLGIDVWEHAYYLQYKNVRPDYLKAIWNVINWENVTERYMACKK
